Results deposited as PubChem BioAssay AID1259424 (University of Nebraska Medical Center, 2018)

Test: 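Rank knockdowns across the genome by resemblance to the KSR1 depletion profile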 (primary screen)
Cell system: human HCT116 colon cancer cells
Reagents: siRNA pool against human genes, 50 nM
Measured: 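Six signature mRNAs by branched-DNA multiplex assay, scaled to two housekeeping genes and non-targeting median, log2; matched to mean KSR1 knockdown profile by Pearson correlation and euclidean distance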
Reading the numbers: mean correlation with KSR1 profile and KSR1 correlation: higher = expression change more like KSR1 knockdown; mean distance from KSR1 profile: higher = expression change less like KSR1 knockdown
The deposit covers about 14,000 reagents; shown is a random part of them. 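Higher correlation or smaller distance means closer resemblance to KSR1 loss; control wells, including KSR1 knockdowns, recur on many plates.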 Not given: the time to read-out.

| target gene | mean correlation with KSR1 profile | mean distance from KSR1 profile | KSR1 correlation, replicate 1 | KSR1 correlation, replicate 2 | KSR1 correlation, replicate 3 |
| --- | --- | --- | --- | --- | --- |
| IFI16 (interferon gamma inducible protein 16) | -0.0687 | 1.94 | 0.0371 | -0.0208 | 0.0175 |
| NIM1K (NIM1 serine/threonine protein kinase) | 0.881 | 0.611 | 0.917 | 0.872 | 0.622 |
| NDUFC1 (NADH:ubiquinone oxidoreductase subunit C1) | 0.537 | 1.62 | 0.675 | 0.457 | 0.55 |
| SEMA5B (semaphorin 5B) | -0.265 | 2.9 | -0.429 | -0.115 | -0.152 |
| FYRD1 (FYRN and FYRC domains INO80 complex interactor 1) | 0.764 | 3.74 | 0.802 | 0.631 | 0.545 |
| SPHKAP (SPHK1 interactor, AKAP domain containing) | 0.457 | 1.89 | 0.429 | 0.301 | 0.571 |
| FGB (fibrinogen beta chain) | -0.409 | 2.05 | -0.581 | -0.661 | -0.39 |
| CACNA1I (calcium voltage-gated channel subunit alpha1 I) | -0.179 | 1.67 | -0.71 | -0.0213 | -0.102 |
| ARHGAP45 (Rho GTPase activating protein 45) | -0.0118 | 1.59 | -0.126 | -0.227 | -0.128 |
| DGKG (diacylglycerol kinase gamma) | 0.346 | 2.96 | 0.585 | 0.398 | -0.0685 |
| KDM1A (lysine demethylase 1A) | 0.231 | 2.42 | 0.149 | 0.252 | 0.211 |
| SCARA3 (scavenger receptor class A member 3) | 0.458 | 0.924 | 0.515 | 0.261 | 0.697 |
| FBH1 (F-box DNA helicase 1) | -0.49 | 2.24 | -0.245 | -0.498 | -0.717 |
| BRINP1 (BMP/retinoic acid inducible neural specific 1) | -0.379 | 2.01 | -0.516 | -0.424 | -0.41 |
| SLC35A1 | -0.0795 | 2.37 | 0.104 | -0.45 | 0.0375 |
| PALB2 (partner and localizer of BRCA2) | 0.532 | 2.48 | 0.5 | 0.635 | 0.31 |
| DHX58 (DExH-box helicase 58) | -0.391 | 3.29 | -0.252 | -0.347 | -0.734 |
| DYNC1I2 (dynein cytoplasmic 1 intermediate chain 2) | -0.0591 | 4.89 | -0.0168 | 0.0642 | -0.25 |
| PBK (PDZ binding kinase) | 0.0385 | 1.8 | 0.458 | 0.0307 | -0.597 |
| FGA (fibrinogen alpha chain) | -0.131 | 1.83 | -0.033 | -0.368 | -0.368 |
| ATP5PO (ATP synthase peripheral stalk subunit OSCP) | 0.219 | 1.85 | 0.179 | 0.233 | 0.123 |
| DAZ4 (deleted in azoospermia 4) | -0.184 | 1.2 | -0.247 | -0.171 | -0.183 |
| G6PD (glucose-6-phosphate dehydrogenase) | -0.0941 | 3.74 | -0.106 | -0.0652 | 0.0725 |
| TCOF1 (treacle ribosome biogenesis factor 1) | -0.571 | 1.64 | -0.125 | -0.655 | -0.7 |
| RSPO3 (R-spondin 3) | 0.585 | 1.64 | 0.5 | 0.555 | 0.52 |
| HYPK (huntingtin interacting protein K) | -0.299 | 2.49 | -0.0616 | -0.449 | -0.243 |
| TMEM106C (transmembrane protein 106C) | 0.178 | 1.56 | -0.146 | 0.0475 | 0.224 |
| SEL1L3 (SEL1L family member 3) | 0.46 | 1.28 | 0.131 | 0.39 | 0.65 |
| AGFG2 (ArfGAP with FG repeats 2) | 0.041 | 4.39 | -0.236 | 0.24 | -0.12 |
| RPL31 (ribosomal protein L31) | -0.138 | 4.5 | -0.146 | 0.12 | -0.617 |
| PROK1 (prokineticin 1) | 0.196 | 2.51 | 0.33 | 0.289 | -0.0294 |
| PIGQ (phosphatidylinositol glycan anchor biosynthesis class Q) | -0.138 | 1.03 | 0.171 | -0.179 | -0.11 |
| HIKESHI (heat shock protein nuclear import factor hikeshi) | 0.0209 | 5.62 | 0.311 | 0.0734 | -0.0425 |
| GPR39 (G protein-coupled receptor 39) | -0.246 | 3.11 | -0.385 | -0.129 | -0.327 |
| ETV5 (ETS variant transcription factor 5) | -0.127 | 1.61 | -0.217 | -0.178 | -0.265 |
| HBA2 (hemoglobin subunit alpha 2) | 0.303 | 2.35 | 0.14 | -0.209 | 0.504 |
| ACVR1C (activin A receptor type 1C) | 0.0988 | 2.3 | 0.0485 | 0.284 | -0.105 |
| CDC42EP1 (CDC42 effector protein 1) | -0.54 | 2.98 | -0.571 | -0.611 | -0.535 |
| SERPINI1 (serpin family I member 1) | -0.0555 | 1.76 | 0.00662 | 0.0064 | -0.141 |
| MAGI2 | 0.14 | 1.25 | -0.0937 | 0.144 | 0.213 |
| TKFC (triokinase and FMN cyclase) | -0.00944 | 2.27 | -0.0476 | -0.228 | -0.144 |
| GPR156 (G protein-coupled receptor 156) | 0.124 | 2.52 | 0.129 | 0.197 | -0.0781 |
| MPZ (myelin protein zero) | 0.615 | 1.71 | 0.623 | 0.658 | 0.433 |
| ZNF324 (zinc finger protein 324) | -0.395 | 2.94 | -0.0739 | -0.492 | -0.622 |
| MAPK3 (mitogen-activated protein kinase 3) | 0.603 | 1.57 | 0.683 | 0.515 | 0.53 |
| KDM5C (lysine demethylase 5C) | 0.261 | 2.37 | 0.34 | 0.317 | 0.208 |
| TGM1 (transglutaminase 1) | -0.0325 | 1.34 | -0.274 | 0.203 | -0.00475 |
| CDA (cytidine deaminase) | 0.247 | 2.79 | 0.248 | 0.205 | 0.195 |
| DPP8 (dipeptidyl peptidase 8) | -0.00374 | 1.49 | 0.113 | -0.351 | 0.034 |
| CLU (clusterin) | -0.492 | 2.75 | -0.399 | -0.595 | -0.459 |
